According to PMC4521966:
No constants are given. Whether binding was seen depends on the method and setting. In cells and extracts the contact can be indirect. Here binding means that the protein was enriched with, or labelled near, the bait; the list need not be complete. Where a sequence is shown, tags or fusion partners need not be part of it.

Protein sequences, listed by entry. Tags and fused reporters are not part of them. Residues count along the entry.
UniProt P53396: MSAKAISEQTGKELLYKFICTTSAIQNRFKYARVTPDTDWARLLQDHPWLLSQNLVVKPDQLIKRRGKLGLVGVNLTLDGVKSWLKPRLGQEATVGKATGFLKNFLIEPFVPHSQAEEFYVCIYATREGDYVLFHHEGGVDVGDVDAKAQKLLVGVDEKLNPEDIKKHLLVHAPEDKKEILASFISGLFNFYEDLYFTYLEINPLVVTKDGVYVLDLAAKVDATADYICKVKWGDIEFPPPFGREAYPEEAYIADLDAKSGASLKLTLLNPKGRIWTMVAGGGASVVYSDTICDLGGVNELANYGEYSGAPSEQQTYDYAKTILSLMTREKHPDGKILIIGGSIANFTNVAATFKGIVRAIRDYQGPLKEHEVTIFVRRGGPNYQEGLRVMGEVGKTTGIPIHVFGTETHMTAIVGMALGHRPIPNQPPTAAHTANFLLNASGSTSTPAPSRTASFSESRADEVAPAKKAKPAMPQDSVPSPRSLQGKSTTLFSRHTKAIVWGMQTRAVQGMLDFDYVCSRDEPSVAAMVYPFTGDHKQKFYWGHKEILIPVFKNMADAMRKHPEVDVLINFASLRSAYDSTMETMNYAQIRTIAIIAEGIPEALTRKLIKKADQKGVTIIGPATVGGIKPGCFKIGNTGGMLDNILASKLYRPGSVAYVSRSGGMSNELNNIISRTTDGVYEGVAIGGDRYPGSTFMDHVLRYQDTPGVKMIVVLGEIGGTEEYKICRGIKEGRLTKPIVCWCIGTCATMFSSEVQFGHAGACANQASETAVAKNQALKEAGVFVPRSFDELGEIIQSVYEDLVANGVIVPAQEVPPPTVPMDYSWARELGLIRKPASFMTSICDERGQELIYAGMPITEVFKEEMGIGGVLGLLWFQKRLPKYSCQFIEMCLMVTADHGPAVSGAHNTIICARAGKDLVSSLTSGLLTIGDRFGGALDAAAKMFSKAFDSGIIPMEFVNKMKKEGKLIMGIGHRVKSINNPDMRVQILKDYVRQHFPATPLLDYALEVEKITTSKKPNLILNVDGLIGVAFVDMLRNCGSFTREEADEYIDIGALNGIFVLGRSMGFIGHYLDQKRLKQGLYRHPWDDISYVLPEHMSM
UniProt P63010: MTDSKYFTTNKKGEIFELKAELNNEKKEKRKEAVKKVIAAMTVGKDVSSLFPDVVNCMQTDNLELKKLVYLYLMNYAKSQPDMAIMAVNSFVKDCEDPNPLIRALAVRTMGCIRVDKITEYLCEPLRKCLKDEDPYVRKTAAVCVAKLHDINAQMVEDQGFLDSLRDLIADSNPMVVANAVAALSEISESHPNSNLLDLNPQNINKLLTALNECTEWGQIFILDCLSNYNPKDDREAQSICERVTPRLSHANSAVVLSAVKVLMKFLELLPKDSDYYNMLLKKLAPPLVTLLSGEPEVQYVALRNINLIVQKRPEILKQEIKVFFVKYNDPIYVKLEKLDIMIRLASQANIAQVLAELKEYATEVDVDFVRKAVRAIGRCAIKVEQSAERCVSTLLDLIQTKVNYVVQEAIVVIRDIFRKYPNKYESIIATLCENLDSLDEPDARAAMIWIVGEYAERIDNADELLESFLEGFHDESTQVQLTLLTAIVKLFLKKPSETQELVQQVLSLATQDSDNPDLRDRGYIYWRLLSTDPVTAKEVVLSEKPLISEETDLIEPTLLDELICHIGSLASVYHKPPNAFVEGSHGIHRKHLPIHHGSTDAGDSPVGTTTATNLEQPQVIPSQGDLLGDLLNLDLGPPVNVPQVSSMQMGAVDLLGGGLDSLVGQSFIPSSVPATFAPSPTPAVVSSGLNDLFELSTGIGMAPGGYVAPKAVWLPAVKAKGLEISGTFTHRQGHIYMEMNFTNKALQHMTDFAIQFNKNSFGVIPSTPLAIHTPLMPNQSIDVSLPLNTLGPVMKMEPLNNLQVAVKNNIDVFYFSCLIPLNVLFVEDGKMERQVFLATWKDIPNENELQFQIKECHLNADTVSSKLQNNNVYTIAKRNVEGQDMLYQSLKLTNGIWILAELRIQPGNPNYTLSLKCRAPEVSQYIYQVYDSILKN
UniProt P17844: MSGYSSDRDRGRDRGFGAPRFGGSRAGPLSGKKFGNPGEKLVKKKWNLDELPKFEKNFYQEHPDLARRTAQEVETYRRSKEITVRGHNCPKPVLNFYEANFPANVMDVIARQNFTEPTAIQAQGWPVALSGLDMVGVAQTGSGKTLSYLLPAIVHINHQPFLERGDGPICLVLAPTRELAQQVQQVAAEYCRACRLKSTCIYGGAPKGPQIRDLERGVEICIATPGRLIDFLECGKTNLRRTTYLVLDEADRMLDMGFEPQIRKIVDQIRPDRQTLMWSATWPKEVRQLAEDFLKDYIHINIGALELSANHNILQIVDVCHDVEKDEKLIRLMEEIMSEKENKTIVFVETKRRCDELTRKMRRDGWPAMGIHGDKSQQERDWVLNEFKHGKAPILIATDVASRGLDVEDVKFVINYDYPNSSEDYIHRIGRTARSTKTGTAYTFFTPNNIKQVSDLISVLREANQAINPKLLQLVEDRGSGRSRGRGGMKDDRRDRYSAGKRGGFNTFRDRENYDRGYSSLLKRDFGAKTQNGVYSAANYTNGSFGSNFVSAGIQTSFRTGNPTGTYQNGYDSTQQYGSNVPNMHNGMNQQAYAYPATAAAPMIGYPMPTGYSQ
UniProt P11142: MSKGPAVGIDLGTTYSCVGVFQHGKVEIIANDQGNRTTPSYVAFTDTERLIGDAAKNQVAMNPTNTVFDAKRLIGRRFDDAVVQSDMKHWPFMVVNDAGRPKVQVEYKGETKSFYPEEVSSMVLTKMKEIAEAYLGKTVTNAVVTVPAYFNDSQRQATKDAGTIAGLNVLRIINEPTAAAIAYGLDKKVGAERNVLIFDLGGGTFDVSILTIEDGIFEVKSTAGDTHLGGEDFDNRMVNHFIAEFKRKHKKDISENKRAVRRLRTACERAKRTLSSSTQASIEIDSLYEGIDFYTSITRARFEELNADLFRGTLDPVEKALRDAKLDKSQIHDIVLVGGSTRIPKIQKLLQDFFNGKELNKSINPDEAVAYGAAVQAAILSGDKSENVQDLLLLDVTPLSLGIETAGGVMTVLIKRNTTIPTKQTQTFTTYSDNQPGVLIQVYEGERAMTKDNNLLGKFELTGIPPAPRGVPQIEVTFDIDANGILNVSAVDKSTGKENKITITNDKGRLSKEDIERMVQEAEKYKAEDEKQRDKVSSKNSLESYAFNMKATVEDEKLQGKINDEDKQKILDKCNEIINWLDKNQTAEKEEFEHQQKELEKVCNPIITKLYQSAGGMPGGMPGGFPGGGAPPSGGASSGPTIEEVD
UniProt P38646, residues 47-679: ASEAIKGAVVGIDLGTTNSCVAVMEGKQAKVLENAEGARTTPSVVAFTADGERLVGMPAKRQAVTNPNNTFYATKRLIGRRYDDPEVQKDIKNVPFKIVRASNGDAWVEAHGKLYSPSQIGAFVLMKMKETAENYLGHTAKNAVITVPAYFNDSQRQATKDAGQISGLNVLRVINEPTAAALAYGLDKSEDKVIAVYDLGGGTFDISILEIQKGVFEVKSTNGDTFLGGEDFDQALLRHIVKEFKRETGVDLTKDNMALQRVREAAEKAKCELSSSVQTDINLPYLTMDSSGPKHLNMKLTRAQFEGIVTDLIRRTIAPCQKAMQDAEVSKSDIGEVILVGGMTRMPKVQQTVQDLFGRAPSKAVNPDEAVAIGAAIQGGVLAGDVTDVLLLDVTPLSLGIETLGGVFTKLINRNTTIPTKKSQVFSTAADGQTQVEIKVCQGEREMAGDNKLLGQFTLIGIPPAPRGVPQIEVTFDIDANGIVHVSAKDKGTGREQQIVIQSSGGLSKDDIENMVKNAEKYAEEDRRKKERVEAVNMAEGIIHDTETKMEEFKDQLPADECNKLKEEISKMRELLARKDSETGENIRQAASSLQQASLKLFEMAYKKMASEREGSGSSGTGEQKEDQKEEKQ
UniProt Q13435: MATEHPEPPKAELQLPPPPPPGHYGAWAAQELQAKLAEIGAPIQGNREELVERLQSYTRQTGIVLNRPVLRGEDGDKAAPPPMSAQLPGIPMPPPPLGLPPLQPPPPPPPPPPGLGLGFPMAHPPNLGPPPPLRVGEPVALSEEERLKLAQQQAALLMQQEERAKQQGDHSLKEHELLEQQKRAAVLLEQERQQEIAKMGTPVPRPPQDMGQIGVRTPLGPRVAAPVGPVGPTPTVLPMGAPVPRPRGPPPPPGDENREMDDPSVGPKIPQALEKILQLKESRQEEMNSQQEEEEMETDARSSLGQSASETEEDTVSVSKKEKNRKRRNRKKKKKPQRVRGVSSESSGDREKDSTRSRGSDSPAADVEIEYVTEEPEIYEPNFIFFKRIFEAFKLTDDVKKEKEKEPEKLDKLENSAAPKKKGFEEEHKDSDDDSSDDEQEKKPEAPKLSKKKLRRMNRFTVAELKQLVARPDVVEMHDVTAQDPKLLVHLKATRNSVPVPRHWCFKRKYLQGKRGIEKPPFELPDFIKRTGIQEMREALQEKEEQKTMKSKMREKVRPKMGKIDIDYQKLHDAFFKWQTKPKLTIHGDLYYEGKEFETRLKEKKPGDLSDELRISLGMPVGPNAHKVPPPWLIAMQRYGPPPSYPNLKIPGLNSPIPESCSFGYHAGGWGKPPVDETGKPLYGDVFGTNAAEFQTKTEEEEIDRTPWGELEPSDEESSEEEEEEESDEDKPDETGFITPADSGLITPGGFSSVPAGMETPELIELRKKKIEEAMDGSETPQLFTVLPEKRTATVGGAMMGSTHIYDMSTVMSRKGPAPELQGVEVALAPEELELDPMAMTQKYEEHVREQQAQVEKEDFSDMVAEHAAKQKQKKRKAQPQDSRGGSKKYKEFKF
UniProt Q8IZH2: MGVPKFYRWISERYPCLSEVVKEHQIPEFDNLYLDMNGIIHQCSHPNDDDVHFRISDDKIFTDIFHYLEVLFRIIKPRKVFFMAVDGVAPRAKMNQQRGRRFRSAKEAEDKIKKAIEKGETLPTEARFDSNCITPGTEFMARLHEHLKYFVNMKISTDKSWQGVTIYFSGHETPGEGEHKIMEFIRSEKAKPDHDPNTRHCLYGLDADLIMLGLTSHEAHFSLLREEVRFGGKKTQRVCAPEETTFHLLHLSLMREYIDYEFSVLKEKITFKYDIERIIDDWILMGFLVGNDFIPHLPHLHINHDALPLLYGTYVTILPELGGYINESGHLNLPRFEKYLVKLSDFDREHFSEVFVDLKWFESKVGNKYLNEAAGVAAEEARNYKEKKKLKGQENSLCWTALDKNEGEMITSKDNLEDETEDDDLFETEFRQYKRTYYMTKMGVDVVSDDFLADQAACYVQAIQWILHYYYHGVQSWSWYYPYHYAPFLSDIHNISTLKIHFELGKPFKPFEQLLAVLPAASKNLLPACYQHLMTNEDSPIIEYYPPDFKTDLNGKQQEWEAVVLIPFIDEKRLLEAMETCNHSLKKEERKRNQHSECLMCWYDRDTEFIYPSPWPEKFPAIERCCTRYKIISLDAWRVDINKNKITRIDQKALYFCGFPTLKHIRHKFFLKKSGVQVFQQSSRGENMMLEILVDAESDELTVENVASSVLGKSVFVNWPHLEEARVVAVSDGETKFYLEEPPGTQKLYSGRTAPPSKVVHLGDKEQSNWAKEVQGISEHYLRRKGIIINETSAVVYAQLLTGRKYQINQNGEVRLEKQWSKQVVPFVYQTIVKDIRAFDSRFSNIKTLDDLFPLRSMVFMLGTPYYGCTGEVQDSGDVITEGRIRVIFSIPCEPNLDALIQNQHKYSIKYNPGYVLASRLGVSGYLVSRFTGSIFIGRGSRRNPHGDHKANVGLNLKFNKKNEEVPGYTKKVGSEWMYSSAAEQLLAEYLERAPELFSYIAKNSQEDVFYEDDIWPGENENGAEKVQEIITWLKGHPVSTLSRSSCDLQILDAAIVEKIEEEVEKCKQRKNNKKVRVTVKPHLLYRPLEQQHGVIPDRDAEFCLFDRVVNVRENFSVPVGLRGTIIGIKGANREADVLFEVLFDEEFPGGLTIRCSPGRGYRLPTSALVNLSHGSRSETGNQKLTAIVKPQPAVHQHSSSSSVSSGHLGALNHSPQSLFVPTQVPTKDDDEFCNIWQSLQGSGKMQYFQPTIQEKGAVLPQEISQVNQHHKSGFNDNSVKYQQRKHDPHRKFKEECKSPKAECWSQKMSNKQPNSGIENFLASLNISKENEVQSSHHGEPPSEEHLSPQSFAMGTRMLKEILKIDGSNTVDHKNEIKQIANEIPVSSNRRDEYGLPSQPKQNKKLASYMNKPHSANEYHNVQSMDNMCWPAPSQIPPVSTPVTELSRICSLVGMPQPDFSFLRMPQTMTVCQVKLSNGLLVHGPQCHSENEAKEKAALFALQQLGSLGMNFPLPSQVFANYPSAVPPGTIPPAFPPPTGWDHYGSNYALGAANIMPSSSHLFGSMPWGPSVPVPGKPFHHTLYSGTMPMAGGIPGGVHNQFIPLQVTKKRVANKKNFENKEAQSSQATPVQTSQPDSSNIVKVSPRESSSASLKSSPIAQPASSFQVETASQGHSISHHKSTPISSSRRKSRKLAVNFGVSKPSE

B1: SNW1 (protein, UniProt Q13573 1-536)
chain: MALTSFLPAPTQLSQDQLEAEEKARSQRSRQTSLVSSRREPPPYGYRKGWIPRLLEDFGDGGAFPEIHVAQYPLDMGRKKKMSNALAIQVDSEGKIKYDAIARQGQSKDKVIYSKYTDLVPKEVMNADDPDLQRPDEEAIKEITEKTRVALEKSVSQKVAAAMPVRAADKLAPAQYIRYTPSQQGVAFNSGAKQRVIRMVEMQKDPMEPPRFKINKKIPRGPPSPPAPVMHSPSRKMTVKEQQEWKIPPCISNWKNAKGYTIPLDKRLAADGRGLQTVHINENFAKLAEALYIADRKAREAVEMRAQVERKMAQKEKEKHEEKLREMAQKARERRAGIKTHVEKEDGEARERDEIRHDRRKERQHDRNLSRAAPDKRSKLQRNENRDISEVIALGVPNPRTSNEVQYDQRLFNQSKGMDSGFAGGEDEIYNVYDQAWRGGKDMAQSIYRPSKNLDKDMYGDDLEARIKTNRFVPDKEFSGSDRRQRGREGPVQFEEDPFGLDKFLEEAKQHGGSKRPSDSSRPKEHEHEGKKRRKE
B2: SART1 (protein, UniProt O43290 1-800)
chain: MGSSKKHRGEKEAAGTTAAAGTGGATEQPPRHREHKKHKHRSGGSGGSGGERRKRSRERGGERGSGRRGAEAEARSSTHGRERSQAEPSERRVKREKRDDGYEAAASSKTSSGDASSLSIEETNKLRAKLGLKPLEVNAIKKEAGTKEEPVTADVINPMALRQREELREKLAAAKEKRLLNQKLGKIKTLGEDDPWLDDTAAWIERSRQLQKEKDLAEKRAKLLEEMDQEFGVSTLVEEEFGQRRQDLYSARDLQGLTVEHAIDSFREGETMILTLKDKGVLQEEEDVLVNVNLVDKERAEKNVELRKKKPDYLPYAEDESVDDLAQQKPRSILSKYDEELEGERPHSFRLEQGGTADGLRERELEEIRAKLRLQAQSLSTVGPRLASEYLTPEEMVTFKKTKRRVKKIRKKEKEVVVRADDLLPLGDQTQDGDFGSRLRGRGRRRVSEVEEEKEPVPQPLPSDDTRVENMDISDEEEGGAPPPGSPQVLEEDEAELELQKQLEKGRRLRQLQQLQQLRDSGEKVVEIVKKLESRQRGWEEDEDPERKGAIVFNATSEFCRTLGEIPTYGLAGNREEQEELMDFERDEERSANGGSESDGEENIGWSTVNLDEEKQQQDFSASSTTILDEEPIVNRGLAAALLLCQNKGLLETTVQKVARVKAPNKSLPSAVYCIEDKMAIDDKYSRREEYRGFTQDFKEKDGYKPDVKIEYVDETGRKLTPKEAFRQLSHRFHGKGSGKMKTERRMKKLDEEALLKKMSSSDTPLGTVALLQEKQKAQKTPYIVLSGSGKSMNANTITK
B3: PRPF6 (protein, UniProt O94906 1-941)
chain: MNKKKKPFLGMPAPLGYVPGLGRGATGFTTRSDIGPARDANDPVDDRHAPPGKRTVGDQMKKNQAADDDDEDLNDTNYDEFNGYAGSLFSSGPYEKDDEEADAIYAALDKRMDERRKERREQREKEEIEKYRMERPKIQQQFSDLKRKLAEVTEEEWLSIPEVGDARNKRQRNPRYEKLTPVPDSFFAKHLQTGENHTSVDPRQTQFGGLNTPYPGGLNTPYPGGMTPGLMTPGTGELDMRKIGQARNTLMDMRLSQVSDSVSGQTVVDPKGYLTDLNSMIPTHGGDINDIKKARLLLKSVRETNPHHPPAWIASARLEEVTGKLQVARNLIMKGTEMCPKSEDVWLEAARLQPGDTAKAVVAQAVRHLPQSVRIYIRAAELETDIRAKKRVLRKALEHVPNSVRLWKAAVELEEPEDARIMLSRAVECCPTSVELWLALARLETYENARKVLNKARENIPTDRHIWITAAKLEEANGNTQMVEKIIDRAITSLRANGVEINREQWIQDAEECDRAGSVATCQAVMRAVIGIGIEEEDRKHTWMEDADSCVAHNALECARAIYAYALQVFPSKKSVWLRAAYFEKNHGTRESLEALLQRAVAHCPKAEVLWLMGAKSKWLAGDVPAARSILALAFQANPNSEEIWLAAVKLESENDEYERARRLLAKARSSAPTARVFMKSVKLEWVQDNIRAAQDLCEEALRHYEDFPKLWMMKGQIEEQKEMMEKAREAYNQGLKKCPHSTPLWLLLSRLEEKIGQLTRARAILEKSRLKNPKNPGLWLESVRLEYRAGLKNIANTLMAKALQECPNSGILWSEAIFLEARPQRRTKSVDALKKCEHDPHVLLAVAKLFWSQRKITKAREWFHRTVKIDSDLGDAWAFFYKFELQHGTEEQQEEVRKRCESAEPRHGELWCAVSKDIANWQKKIGDILRLVAGRIKNTF
B4: HNRNPM (protein, UniProt P52272 1-730)
chain: MAAGVEAAAEVAATEIKMEEESGAPGVPSGNGAPGPKGEGERPAQNEKRKEKNIKRGGNRFEPYANPTKRYRAFITNIPFDVKWQSLKDLVKEKVGEVTYVELLMDAEGKSRGCAVVEFKMEESMKKAAEVLNKHSLSGRPLKVKEDPDGEHARRAMQKVMATTGGMGMGPGGPGMITIPPSILNNPNIPNEIIHALQAGRLGSTVFVANLDYKVGWKKLKEVFSMAGVVVRADILEDKDGKSRGIGTVTFEQSIEAVQAISMFNGQLLFDRPMHVKMDERALPKGDFFPPERPQQLPHGLGGIGMGLGPGGQPIDANHLNKGIGMGNIGPAGMGMEGIGFGINKMGGMEGPFGGGMENMGRFGSGMNMGRINEILSNALKRGEIIAKQGGGGGGGSVPGIERMGPGIDRLGGAGMERMGAGLGHGMDRVGSEIERMGLVMDRMGSVERMGSGIERMGPLGLDHMASSIERMGQTMERIGSGVERMGAGMGFGLERMAAPIDRVGQTIERMGSGVERMGPAIERMGLSMERMVPAGMGAGLERMGPVMDRMATGLERMGANNLERMGLERMGANSLERMGLERMGANSLERMGPAMGPALGAGIERMGLAMGGGGGASFDRAIEMERGNFGGSFAGSFGGAGGHAPGVARKACQIFVRNLPFDFTWKMLKDKFNECGHVLYADIKMENGKSKGCGVVKFESPEVAERACRMMNGMKLSGREIDVRIDRNA

Molecular target: T1, C-terminal FLAG-tagged mouse WDR72 (WD repeat-containing protein 72) (mouse) (UniProt D3YYM4)
T1 sequence: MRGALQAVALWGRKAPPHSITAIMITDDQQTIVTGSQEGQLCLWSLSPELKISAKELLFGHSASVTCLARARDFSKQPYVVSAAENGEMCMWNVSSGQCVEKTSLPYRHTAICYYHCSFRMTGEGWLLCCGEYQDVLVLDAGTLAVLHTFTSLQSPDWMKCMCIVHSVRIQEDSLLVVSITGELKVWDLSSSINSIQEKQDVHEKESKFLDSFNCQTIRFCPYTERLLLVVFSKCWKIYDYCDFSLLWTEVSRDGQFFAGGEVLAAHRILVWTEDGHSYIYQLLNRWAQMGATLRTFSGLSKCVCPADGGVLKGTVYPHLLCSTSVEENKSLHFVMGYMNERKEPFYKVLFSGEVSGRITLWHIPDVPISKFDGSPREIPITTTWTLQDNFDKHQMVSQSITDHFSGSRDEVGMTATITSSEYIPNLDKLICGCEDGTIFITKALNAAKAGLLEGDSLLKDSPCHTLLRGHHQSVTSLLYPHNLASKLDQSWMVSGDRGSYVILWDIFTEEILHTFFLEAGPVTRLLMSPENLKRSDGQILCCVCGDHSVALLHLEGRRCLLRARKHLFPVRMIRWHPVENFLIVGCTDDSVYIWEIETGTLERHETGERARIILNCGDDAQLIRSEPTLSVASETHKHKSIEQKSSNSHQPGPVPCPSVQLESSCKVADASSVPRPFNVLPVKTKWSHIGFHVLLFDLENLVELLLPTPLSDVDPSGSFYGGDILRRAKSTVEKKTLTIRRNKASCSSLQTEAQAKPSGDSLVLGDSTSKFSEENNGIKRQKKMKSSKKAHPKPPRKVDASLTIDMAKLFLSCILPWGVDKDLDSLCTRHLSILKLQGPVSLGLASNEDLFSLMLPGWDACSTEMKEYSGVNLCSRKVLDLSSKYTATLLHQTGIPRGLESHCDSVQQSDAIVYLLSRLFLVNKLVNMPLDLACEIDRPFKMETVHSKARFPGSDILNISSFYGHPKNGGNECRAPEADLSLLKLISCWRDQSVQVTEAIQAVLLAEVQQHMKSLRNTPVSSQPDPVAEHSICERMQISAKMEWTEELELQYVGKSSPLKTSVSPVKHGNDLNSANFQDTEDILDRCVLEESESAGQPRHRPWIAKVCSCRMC
Test: affinity purification with mass spectrometry; C-terminal FLAG-tagged mouse WDR72 overexpressed in HEK293; NP40 lysate; anti-FLAG antibody on protein A Dynabeads, 30 min at room temperature, washed twice; six CBB-stained bands cut from the SDS-PAGE gel, trypsin, LC-MS/MS

binding, binds:
ACLY (from UniProt P53396 1-1101)
AP2A1 (from UniProt O95782 1-977)
AP2B1 (from UniProt P63010 1-937)
CDC5L (from UniProt Q99459 1-802)
CLTC (from UniProt Q00610 1-1675)
CNOT1 (from UniProt A5YKK6 1-2376)
DDX5 (from UniProt P17844 1-614)
EPRS (from UniProt P07814 1-1512)
HSPA1A (from UniProt P0DMV8 1-641)
HSPA1L (from UniProt P34931 1-641)
HSPA5 (from UniProt P11021 19-654)
HSPA6 (from UniProt P17066 1-643)
HSPA8 (from UniProt P11142 1-646)
HSPA9 (from UniProt P38646 47-679)
KARS (from UniProt Q15046 1-597)
LARS (from UniProt Q9P2J5 1-1176)
PRKDC (from UniProt P78527 1-4128)
RAD50 (from UniProt Q92878 1-1312)
SF3B1 (from UniProt O75533 1-1304)
SF3B2 (from UniProt Q13435 1-895)
SF3B3 (from UniProt Q15393 1-1217)
SNRNP200 (from UniProt O75643 1-2136)
UBA1 (ubiquitin-like modifier activating enzyme 1) (from UniProt P22314 1-1058)
XRCC6 (from UniProt P12956 1-609)
XRN1 (from UniProt Q8IZH2 1-1706)

Molecular target: T1, C-terminal FLAG-tagged mouse WDR72 (WD repeat-containing protein 72) (mouse)
Test: as above
Remark: another data set of the same source

binding, binds:
B1
B2
B3
B4
